Measured values taken from PubChem BioAssay AID342 (DTP/NCI, 2004).
The list does not hold the whole screen: its compounds were picked by chemical class. Other doses and runs of a compound may be missing. T/C: endpoint of the treated group in % of that of the vehicle group. Some T/C values are marked as having no survivor count here; that says nothing about deaths at the dose. Schedules are NCI's codes, read here as Q, the interval in days (D) or hours (H), X, the number of doses. Some entries hold several experiments; the values are given in rising order. Some schedule codes hold Z or #, which are not explained here.

System: Swiss mice, Sarcoma 180 sc, mean tumor weight T/C
Test: NCI In Vivo Anticancer Drug Screen. Data for tumor model Sarcoma 180 (subcutaneous) in Swiss mice
Details: T/C endpoint: mean tumor weight, evaluation day not shown, higher T/C = larger tumour
Method: The antitumor activity of compounds was measured in mice bearing transplantable tumors. Survival or tumor size were measured and the results are expressed as the measurement made in the treated group (T) divided by the measurement made in the vehicle treated control group (C). The tumor model used in this assay is Sarcoma 180 (subcutaneous) in Swiss mice

Q: How did the T/C (dose: 0.61 mg/kg/injection, schedule: Q01DX007 (ip), vehicle: carboxymethylcellulose (CMC)) turn out when CC(C(=O)O)N(CCCl)CCCl (stereo not drawn) was run?
A: Its T/C is 99 % of control [survivor count not shown].

Q: What about the T/C (dose: 0.62 mg/kg/injection, schedule: Q#A X014 (ip), vehicle: distilled water + alcohol) of the same molecule?
A: Its T/C is 58 % of control [survivor count not shown].

Q: What about the T/C (dose: 1.0 mg/kg/injection, schedule: Q01DX007 (ip), vehicle: methylcellulose (MC)) of the same molecule?
A: Its T/C is 84 [survivor count not shown] and 90 % of control [survivor count not shown].

Q: What about the T/C (dose: 1.22 mg/kg/injection, schedule: Q01DX007 (ip), vehicle: carboxymethylcellulose (CMC)) of the same molecule?
A: The T/C was 95 % of control [survivor count not shown].

Q: And the T/C (dose: 1.25 mg/kg/injection, schedule: Q01DX005 (iv), vehicle: saline)?
A: The T/C was 112 % of control [survivor count not shown].

Q: And the T/C (dose: 1.25 mg/kg/injection, schedule: Q01DX007 (im), vehicle: saline)?
A: Its T/C is 99 % of control [survivor count not shown].

Q: And the T/C (dose: 1.25 mg/kg/injection, schedule: Q01DX007 (ip), vehicle: saline)?
A: Its T/C is 95 % of control [survivor count not shown].

Q: And the T/C (dose: 1.25 mg/kg/injection, schedule: Q01DX007 (sc), vehicle: saline)?
A: Its T/C is 113 % of control [survivor count not shown].

Q: What about the T/C (dose: 1.25 mg/kg/injection, schedule: Q#A X014 (ip), vehicle: distilled water + alcohol) of the same molecule?
A: The T/C was 55 % of control [survivor count not shown].

Q: And the T/C (dose: 1.5 mg/kg/injection, schedule: Q01DX007 (ip), vehicle: methylcellulose (MC))?
A: The T/C was 57 [survivor count not shown] and 81 % of control [survivor count not shown].

Q: What about the T/C (dose: 1.8 mg/kg/injection, schedule: Q01DX007 (ip), vehicle: carboxymethylcellulose (CMC)) of the same molecule?
A: Its T/C is 73 % of control [survivor count not shown].

Q: And the T/C (dose: 2.0 mg/kg/injection, schedule: Q01DX007 (ip), vehicle: methylcellulose (MC))?
A: Its T/C is 68 [survivor count not shown] and 82 % of control [survivor count not shown].

Q: And the T/C (dose: 2.25 mg/kg/injection, schedule: Q01DX007 (ip), vehicle: carboxymethylcellulose (CMC))?
A: The T/C was 66 % of control [survivor count not shown].

Q: What about the T/C (dose: 2.45 mg/kg/injection, schedule: Q01DX007 (ip), vehicle: carboxymethylcellulose (CMC)) of the same molecule?
A: The T/C was 84 % of control [survivor count not shown].

Q: And the T/C (dose: 2.5 mg/kg/injection, schedule: Q01DX005 (iv), vehicle: saline)?
A: The T/C was 63 % of control [survivor count not shown].

Q: What about the T/C (dose: 2.5 mg/kg/injection, schedule: Q01DX007 (im), vehicle: saline) of the same molecule?
A: Its T/C is 81 % of control [survivor count not shown].

Q: And the T/C (dose: 2.5 mg/kg/injection, schedule: Q01DX007 (ip), vehicle: methylcellulose (MC))?
A: The T/C was 62 [survivor count not shown] and 72 % of control [survivor count not shown].

Q: What about the T/C (dose: 2.5 mg/kg/injection, schedule: Q01DX007 (ip), vehicle: saline) of the same molecule?
A: The T/C was 63 % of control [survivor count not shown].

Q: What about the T/C (dose: 2.5 mg/kg/injection, schedule: Q01DX007 (sc), vehicle: saline) of the same molecule?
A: The T/C was 68 % of control [survivor count not shown].

Q: What about the T/C (dose: 2.5 mg/kg/injection, schedule: Q#A X014 (ip), vehicle: distilled water + alcohol) of the same molecule?
A: The T/C was 16 % of control [survivor count not shown].

Q: And the T/C (dose: 3.0 mg/kg/injection, schedule: Q01DX007 (ip), vehicle: carboxymethylcellulose (CMC))?
A: Its T/C is 82 % of control [survivor count not shown].

Q: And the T/C (dose: 3.0 mg/kg/injection, schedule: Q01DX007 (ip), vehicle: methylcellulose (MC))?
A: The T/C was 35 [survivor count not shown] and 77 % of control [survivor count not shown].

Q: And the T/C (dose: 3.5 mg/kg/injection, schedule: Q01DX007 (ip), vehicle: methylcellulose (MC))?
A: Its T/C is 35 [survivor count not shown] and 40 % of control [survivor count not shown].

Q: And the T/C (dose: 4.0 mg/kg/injection, schedule: Q01DX007 (ip), vehicle: methylcellulose (MC))?
A: Its T/C is 17 [survivor count not shown] and 36 % of control [survivor count not shown].

Q: What about the T/C (dose: 4.5 mg/kg/injection, schedule: Q01DX007 (ip), vehicle: carboxymethylcellulose (CMC)) of the same molecule?
A: The T/C was 33 % of control [survivor count not shown].

Q: What about the T/C (dose: 4.5 mg/kg/injection, schedule: Q01DX007 (ip), vehicle: methylcellulose (MC)) of the same molecule?
A: Its T/C is 18 [survivor count not shown] and 24 % of control [survivor count not shown].

Q: And the T/C (dose: 4.9 mg/kg/injection, schedule: Q01DX007 (ip), vehicle: carboxymethylcellulose (CMC))?
A: The T/C was 39 % of control [survivor count not shown].

Q: And the T/C (dose: 5.0 mg/kg/injection, schedule: Q01DX005 (iv), vehicle: saline)?
A: Its T/C is 25 % of control [survivor count not shown].

Q: What about the T/C (dose: 5.0 mg/kg/injection, schedule: Q01DX007 (im), vehicle: saline) of the same molecule?
A: The T/C was 37 % of control [survivor count not shown].

Q: And the T/C (dose: 5.0 mg/kg/injection, schedule: Q01DX007 (ip), vehicle: methylcellulose (MC))?
A: Its T/C is 11 [survivor count not shown] and 30 % of control [survivor count not shown].

Q: What about the T/C (dose: 5.0 mg/kg/injection, schedule: Q01DX007 (ip), vehicle: saline) of the same molecule?
A: The T/C was 43 % of control [survivor count not shown].

Q: What about the T/C (dose: 5.0 mg/kg/injection, schedule: Q01DX007 (oral), vehicle: saline) of the same molecule?
A: The T/C was 57 % of control [survivor count not shown].

Q: What about the T/C (dose: 5.0 mg/kg/injection, schedule: Q01DX007 (sc), vehicle: saline) of the same molecule?
A: Its T/C is 65 % of control [survivor count not shown].

Q: And the T/C (dose: 7.5 mg/kg/injection, schedule: Q01DX007 (im), vehicle: saline)?
A: Its T/C is 44 % of control [survivor count not shown].

Q: What about the T/C (dose: 7.5 mg/kg/injection, schedule: Q01DX007 (ip), vehicle: saline) of the same molecule?
A: The T/C was 13 % of control [survivor count not shown].

Q: What about the T/C (dose: 10.0 mg/kg/injection, schedule: Q01DX007 (oral), vehicle: saline) of the same molecule?
A: Its T/C is 50 % of control [survivor count not shown].

Q: What about the T/C (dose: 20.0 mg/kg/injection, schedule: Q01DX007 (oral), vehicle: saline) of the same molecule?
A: The T/C was 42 % of control [survivor count not shown].

Q: COc1cccc(N(CCCl)CCCl)c1OC was tested. Which T/C (dose: 8.0 mg/kg/injection, schedule: Q#A X014 (ip), vehicle: carboxymethylcellulose (CMC)) did it give?
A: Its T/C is 90 % of control [survivor count not shown].

Q: And the T/C (dose: 12.0 mg/kg/injection, schedule: Q#A X014 (ip), vehicle: carboxymethylcellulose (CMC))?
A: The T/C was 102 % of control [survivor count not shown].

Q: And the T/C (dose: 18.0 mg/kg/injection, schedule: Q#A X014 (ip), vehicle: carboxymethylcellulose (CMC))?
A: Its T/C is 99 % of control [survivor count not shown].

Q: What about the T/C (dose: 27.0 mg/kg/injection, schedule: Q#A X014 (ip), vehicle: carboxymethylcellulose (CMC)) of the same molecule?
A: The T/C was 113 % of control [survivor count not shown].

Q: And the T/C (dose: 41.0 mg/kg/injection, schedule: Q#A X014 (ip), vehicle: carboxymethylcellulose (CMC))?
A: The T/C was 68 % of control [survivor count not shown].

Q: Which results are given for O=C(O)CCOc1cccc(N(CCCl)CCCl)c1?
A: T/C (dose: 15.5 mg/kg/injection, schedule: Q#A X014 (ip), vehicle: methylcellulose (MC)): 41 % of control [survivor count not shown]; T/C (dose: 15.5 mg/kg/injection, schedule: Q#A X014 (ip), vehicle: saline): 62 % of control [survivor count not shown]; T/C (dose: 23.5 mg/kg/injection, schedule: Q#A X014 (ip), vehicle: methylcellulose (MC)): 11 % of control [survivor count not shown]; T/C (dose: 23.5 mg/kg/injection, schedule: Q#A X014 (ip), vehicle: saline): 24 % of control [survivor count not shown]; T/C (dose: 35.0 mg/kg/injection, schedule: Q#A X014 (ip), vehicle: saline): 23 % of control [survivor count not shown]; T/C (dose: 52.5 mg/kg/injection, schedule: Q#A X014 (ip), vehicle: saline): 9 % of control [survivor count not shown]
